Values from PubChem BioAssay AID1259254 (NCATS, 2017)
This is a random part of about 59,000 reagents. In the full data, about 1,550 (2.6%) got an active call. 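G2 share is only a proxy for re-replication; each gene was hit by three separate siRNAs, and active genes were retested.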 Raw values vary from plate to plate and are shown uncorrected. The numbers tell different reagents against one gene apart. Reagent sequences are not shown. Not given: the amount of reagent.

- Purpose: 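Gene knock-downs that lead to re-replication, shown by excess G2 DNA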 (primary screen)
- System: human HCT116 colorectal cancer cells
- Reagents: single siRNA against human genes
- Time to read-out: 3 days
- Measured: 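Imaged Hoechst DNA stain sorts each cell into a cycle phase by DNA amount; per plate, G2 fraction set to 0% for non-targeting and 100% for GMNN siRNA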
- Reading the numbers: G2 robust z-score and G2 cells, % of GMNN control: higher = more G2 cells, more excess DNA replication; raw share of cells in G2: higher = larger share of cells with G2 DNA content
- Active means: 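Active siRNAs have a G2 robust z of 5 or more median absolute deviations over the median, which in these data means about 38% or higher of GMNN control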

The first 3 entries as a preview:
Gene | reagent no. | G2 robust z-score | G2 cells, % of GMNN control | raw share of cells in G2 (%) | Call
ZSCAN5A (GeneID 79149) | 1 | 7.51 | 55.8 | 31.1 | active
ZSCAN5A (GeneID 79149) | 2 | 4.62 | 35.5 | 15.3 | inactive
ZSCAN5A (GeneID 79149) | 3 | 0.0428 | 3.27 | 4.66 | inactive

The listing, repeating the preview:
Gene | reagent no. | G2 robust z-score | G2 cells, % of GMNN control | raw share of cells in G2 (%) | Call
ZSCAN5A (GeneID 79149) | 1 | 7.51 | 55.8 | 31.1 | active
ZSCAN5A (GeneID 79149) | 2 | 4.62 | 35.5 | 15.3 | inactive
ZSCAN5A (GeneID 79149) | 3 | 0.0428 | 3.27 | 4.66 | inactive
FCER1G (GeneID 2207) | 1 | -0.441 | -0.136 | 5.19 | inactive
FCER1G (GeneID 2207) | 2 | -1.38 | -6.76 | 1.25 | inactive
FCER1G (GeneID 2207) | 3 | -0.56 | -0.971 | 4.89 | inactive
MCFD2P1 (GeneID 645927) | 1 | 9.32 | 68.5 | 29.6 | active
MCFD2P1 (GeneID 645927) | 2 | 0.757 | 8.29 | 6.3 | inactive
MCFD2P1 (GeneID 645927) | 3 | 0.904 | 9.33 | 6 | inactive
CDH17 (GeneID 1015) | 1 | 0.263 | 4.81 | 6.68 | inactive
CDH17 (GeneID 1015) | 2 | -1.07 | -4.53 | 3.34 | inactive
CDH17 (GeneID 1015) | 3 | -0.17 | 1.77 | 4.71 | inactive
BIN3 (GeneID 55909) | 1 | -0.423 | -0.00679 | 2.79 | inactive
BIN3 (GeneID 55909) | 2 | 1.44 | 13.1 | 11.8 | inactive
BIN3 (GeneID 55909) | 3 | -1.36 | -6.58 | 1.57 | inactive
CHRND (GeneID 1144) | 1 | 0.918 | 9.42 | 8.72 | inactive
CHRND (GeneID 1144) | 2 | -1.19 | -5.43 | 2.95 | inactive
CHRND (GeneID 1144) | 3 | -0.833 | -2.89 | 3.25 | inactive
WNT7B (GeneID 7477) | 1 | -0.706 | -2 | 4.24 | inactive
WNT7B (GeneID 7477) | 2 | 1.1 | 10.7 | 8.15 | inactive
WNT7B (GeneID 7477) | 3 | -0.765 | -2.42 | 2.49 | inactive
SUB1P1 (GeneID 728938) | 1 | -1.06 | -4.51 | 2.2 | inactive
SUB1P1 (GeneID 728938) | 2 | -0.574 | -1.07 | 2.97 | inactive
SUB1P1 (GeneID 728938) | 3 | 0.163 | 4.12 | 4.71 | inactive
CDX2 (GeneID 1045) | 1 | 0.0118 | 3.05 | 6.05 | inactive
CDX2 (GeneID 1045) | 2 | 0.347 | 5.41 | 5.96 | inactive
CDX2 (GeneID 1045) | 3 | 1.33 | 12.3 | 9.49 | inactive
MUC17 (GeneID 140453) | 1 | 3.02 | 24.2 | 13.3 | inactive
MUC17 (GeneID 140453) | 2 | 0.827 | 8.78 | 5.89 | inactive
MUC17 (GeneID 140453) | 3 | 0.636 | 7.44 | 5.28 | inactive
